No constants are given. Whether binding was seen depends on the method and setting.
Experiments:
[1] = target: AtSSBΔC7, Agrobacterium tumefaciens SSB lacking its last seven amino acids (Agrobacterium tumefaciens strain C58); assay: native gel or EMSA; both purified
[2] = target: AtSSBΔC7, Agrobacterium tumefaciens SSB lacking its last seven amino acids (Agrobacterium tumefaciens strain C58); assay: cross-linking; glutaraldehyde 0.0001%, TelA with AtSSB or AtSSBΔC7, 25 mM HEPES pH 7.6, 0.1 mM EDTA, 100 mM or 200 mM NaCl, 30°C 15 min then 5 min with crosslinker; SDS-PAGE and anti-His western blot; both purified

B1: TelA, telomere resolvase from Agrobacterium tumefaciens strain C58 (enzyme, UniProt Q7CWV1 1-442)
chain: MLAAKRKTKTPVLVERIDQFVGQIKEAMKSDDASRNRKIRDLWDAEVRYHFDNGRTEKTLELYIMKYRNALKAEFGPKSTPLAICNMKKLRERLNTYIARGDYPKTGVATSIVEKIERAEFNTAGRKPTVLLRIADFIAAMNGMDAKQDMQALWDAEIAIMNGRAQTTIISYITKYRNAIREAFGDDHPMLKIATGDAAMYDEARRVKMEKIANKHGALITFENYRQVLKICEDCLKSSDPLMIGIGLIGMTGRRPYEVFTQAEFSPAPYGKGVSKWSILFNGQAKTKQGEGTKFGITYEIPVLTRSETVLAAYKRLRESGQGKLWHGMSIDDFSSETRLLLRDTVFNLFEDVWPKEELPKPYGLRHLYAEVAYHNFAPPHVTKNSYFAAILGHNNNDLETSLSYMTYTLPEDRDNALARLKRTNERTLQQMATIAPVSRKG
**Q.** For B1, which binding [1] is on record?
**A.** Its binding is “no binding”.

**Q.** What about the binding [2] of the same binder?
**A.** Its binding is “no binding”.

From PMC7861564
